PubChem BioAssay AID743121 | NCATS, 2013

- Purpose: 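Partners whose loss is lethal together with topoisomerase I blockade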 (primary screen)
- System: MDA-MB-231 cells, a human breast cancer line
- Reagents: single siRNA against human genes, 20 nM siRNA (0.8 pmol per well)
- Duration: 120 h (drug added 48 h after transfection, read 72 h later)
- Challenge: camptothecin 20 nM (about EC30) for 72 h; vehicle 0.1% DMSO in parallel plates
- Detection: 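CellTiter-Glo ATP signal, scaled to control siRNA as percent viability; sensitisation given as log2 of untreated divided by camptothecin-treated viability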
- Reading the numbers: log2 vehicle/camptothecin viability: higher = stronger sensitisation to camptothecin
- Call rule: 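Active genes have an RSA gene-level p-value below 0.001, computed from the ratios of their separate siRNAs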
In all, the deposit lists about 26,000 reagents; shown is a part drawn at random. Over the whole deposit, 167 (0.63%) are marked active. 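Calls are per gene from RSA p-values that are not deposited; an individual active-marked siRNA can sensitise only weakly.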 Entries without a mark were called inactive. Reagents against one gene are numbered here. Further read-outs or replicates are left out here.

log2 vehicle/camptothecin viability, by gene and reagent
PTGDR2: #1 0.0354; #2 -0.188; #3 -0.319; #4 0.156
SPINT1: #1 -0.0945; #2 -0.18; #3 -0.332; #4 -0.0726
NOX1: #1 -0.127; #2 -0.00234; #3 -0.0326; #4 -0.474
TMPRSS15: #1 -0.153; #2 -0.124; #3 -0.388; #4 -0.193
AKR1E2: #1 -0.122; #2 -0.14; #3 -0.235; #4 0.139
NFATC2: #1 -0.0957; #2 -0.269; #3 0.259; #4 0.111
CTAG1B: #1 -0.0709; #2 -0.0651; #3 0.375
STYXL1: #1 -0.259 (active); #2 0.608 (active); #3 1.62 (active); #4 0.513 (active)
GABRA4: #1 0.109; #2 0.643; #3 -0.065; #4 -0.147
GABBR2: #1 -0.662; #2 -0.327; #3 -0.336
ADGRF5: #1 -0.234; #2 0.7; #3 1.2; #4 0.0578
CXCL12: #1 -0.137; #2 0.0218; #3 -0.242
AK4: #1 -0.148; #2 -0.148; #3 0.504; #4 -0.548

A few values from the entries so far.
Entry for NOX1 #3 under “log2 vehicle/camptothecin viability”: -0.0326
AKR1E2 #1, log2 vehicle/camptothecin viability: -0.122
STYXL1 #4, log2 vehicle/camptothecin viability: 0.513 (active)
SPINT1 #2, log2 vehicle/camptothecin viability = -0.18
